In paper PMC5947560 one finds binding data, which are given here for one molecule.

In this assay the target is T1, Arl1 (S. cerevisiae) (UniProt P38116).
T1 sequence: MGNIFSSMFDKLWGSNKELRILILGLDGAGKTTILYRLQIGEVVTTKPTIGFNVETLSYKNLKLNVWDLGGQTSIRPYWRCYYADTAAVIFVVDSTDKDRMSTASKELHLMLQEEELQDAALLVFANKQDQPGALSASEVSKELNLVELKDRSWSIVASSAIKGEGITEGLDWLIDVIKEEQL
In words: co-IP; co-immunoprecipitation, data not shown; no details given.

These are yes or no findings as the source states them, for the method shown. In cells and extracts the contact can be indirect. Some binding calls cover weakened binding; strength is not graded here.

B1: Lam5 (protein, UniProt P43560 1-674)
chain: MSDVDNWEPVSDNEDSTDSVKQLGPPFEHASNNDNAGDTEAESLQEVPLNTETNDVRKNLVVITNQSAADEHPTEIKHDQSRTSSTSSFFSGMISSFKSNVPSPVSRSTTPTSPVSQPSIISHRREPSMGSKRRSSRRISNATIAEIGSPLQQVEKPDEVKTRLTPSQMKEDNYDHRRFVEERYMDTPYHYASEQRNKDFHETFKSVPKDDRLLDDFNCGLNRELLYQGKLYITETHLCFNSNVLGWIAKVLIAFEDVTFMEKTSAAGLFPSAISIETKMGKTLFNGFISRDAAFGLMKEVWSRTLLQKDMASENINTKAEKSGNGKEIDDAINSIDEENNDKDANDNDTNENDDENISTNETTPNSTSSSPDKEKEKAYKLRADSSYQYDGPIYHHSTSFPAEPMANNEFVLKELPFDCAPGILFEIMFNSEQNEFLLDFLRGQEGSQITTIPNFTSIDGSSMTLKREYSYEKALHFPAGPKSTTCYVAEVIKRKDPDTYYEVISSIRTPNVPSGGSFSTKTRYLIRWNDEITCLLRVSFWVEWTGSSWIKGMVENGCKNGQLEAAQLMERILSKFIKNNVEECQITISKEEEEQDDKEVKNKLKEVDLEQPREAVVTAPAIAEQQGLKVTMETWLFLYLIVVVLLLFNLFYIRSIAVSLHQLVKLQLVELKL
Consider B1, for which the binding entry is “binds”.
